The list shows a part of the results. The calls rarely recur for the same compound in another form.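 In K562 cells expressing nanoluciferase-fused kinases, luminescence was recorded at 4 h intervals between 2 and 18 h, normalized as percent of control with DMSO at 100% and a positive control at 0%. A significant (2 sigma) signal drop marks a time point as decreased. The authors' rule for a hit is not shown and takes in more than the number of time points.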
Columns and labels:
Assay in all cases: number of time points (of 5) at which kinase-Nluc abundance scored as decreased, DMSO-normalised (count); higher = more persistent destabilization
[1] = compound: COc1cc2c(-c3cnn4cc(N5CCC(N6CCN(C)CC6)CC5)cnc34)ccnc2cc1F; details: 10 µM; K562; 2-18 h
Cediranib (maleate) = compound: COc1cc2c(Oc3ccc4[nH]c(C)cc4c3F)ncnc2cc1OCCCN1CCCC1 [Cediranib (maleate)]; details: 2.5 µM; K562; 2-18 h
Cediranib = compound: COc1cc2c(Oc3ccc4[nH]c(C)cc4c3F)ncnc2cc1OCCCN1CCCC1 [Cediranib]; details: 2.5 µM; K562; 2-18 h
[2] = compound: COc1cc2c(cc1OC)-c1c(C)c3ccc(OC)c(OC)c3c[n+]1CC2 [Dehydrocorydaline (chloride)]; details: 10 µM; K562; 2-18 h
Dehydrocorydaline = compound: COc1cc2c(cc1OC)-c1c(C)c3ccc(OC)c(OC)c3c[n+]1CC2 [Dehydrocorydaline]; details: 10 µM; K562; 2-18 h
[3] = compound: COc1cc2nccc(Nc3cc(OC)c(OC)c(OC)c3)c2cc1OC [GAK inhibitor 49 (hydrochloride)]; details: 10 µM; K562; 2-18 h
GAK inhibitor 49 = compound: COc1cc2nccc(Nc3cc(OC)c(OC)c(OC)c3)c2cc1OC [GAK inhibitor 49]; details: 10 µM; K562; 2-18 h
Cabozantinib (S-malate) = compound: COc1cc2nccc(Oc3ccc(NC(=O)C4(C(=O)Nc5ccc(F)cc5)CC4)cc3)c2cc1OC [Cabozantinib (S-malate)]; details: 10 µM; K562; 2-18 h
Cabozantinib = compound: COc1cc2nccc(Oc3ccc(NC(=O)C4(C(=O)Nc5ccc(F)cc5)CC4)cc3)c2cc1OC [Cabozantinib]; details: 2.5 µM; K562; 2-18 h
KN-93 (hydrochloride) = compound: COc1ccc(S(=O)(=O)N(CCO)c2ccccc2CN(C)C/C=C/c2ccc(Cl)cc2)cc1 [KN-93 (hydrochloride)]; details: 2.5 µM; K562; 2-18 h
KN-93 (phosphate) = compound: COc1ccc(S(=O)(=O)N(CCO)c2ccccc2CN(C)C/C=C/c2ccc(Cl)cc2)cc1 [KN-93 (phosphate)]; details: 2.5 µM; K562; 2-18 h
KN-92 (hydrochloride) = compound: COc1ccc(S(=O)(=O)Nc2ccccc2CN(C)C/C=C/c2ccc(Cl)cc2)cc1 [KN-92 (hydrochloride)]; details: 2.5 µM; K562; 2-18 h
KN-92 (phosphate) = compound: COc1ccc(S(=O)(=O)Nc2ccccc2CN(C)C/C=C/c2ccc(Cl)cc2)cc1 [KN-92 (phosphate)]; details: 2.5 µM; K562; 2-18 h
AX-024 hydrochloride = compound: COc1ccc2c(c1)C(c1ccc(F)cc1)=C(CN1CCCC1)CO2 [AX-024 hydrochloride]; details: 10 µM; K562; 2-18 h
[4] = compound: COc1ccc2c(c1)C(c1ccc(F)cc1)=C(CN1CCCC1)CO2; details: 10 µM; K562; 2-18 h
Ilaprazole (sodium) = compound: COc1ccnc(C[S+]([O-])c2nc3cc(-n4cccc4)ccc3[nH]2)c1C [Ilaprazole (sodium)]; details: 10 µM; K562; 2-18 h
Ilaprazole = compound: COc1ccnc(C[S+]([O-])c2nc3cc(-n4cccc4)ccc3[nH]2)c1C [Ilaprazole]; details: 10 µM; K562; 2-18 h
PLX5622 (hemifumarate) = compound: COc1ncc(F)cc1CNc1ccc(Cc2c[nH]c3ncc(C)cc23)c(F)n1 [PLX5622 (hemifumarate)]; details: 10 µM; K562; 2-18 h
[5] = compound: COc1ncc(F)cc1CNc1ccc(Cc2c[nH]c3ncc(C)cc23)c(F)n1; details: 10 µM; K562; 2-18 h
[6] = compound: CS(=O)(=O)N1CCN(Cc2cc3nc(-c4cccc5[nH]ncc45)nc(N4CCOCC4)c3s2)CC1 [Pictilisib (dimethanesulfonate)]; details: 10 µM; K562; 2-18 h

Amino acid sequences for entries named in this document (tags omitted). A change or cut given only in a name is not applied to a line headed by its entry.
UniProt P14616: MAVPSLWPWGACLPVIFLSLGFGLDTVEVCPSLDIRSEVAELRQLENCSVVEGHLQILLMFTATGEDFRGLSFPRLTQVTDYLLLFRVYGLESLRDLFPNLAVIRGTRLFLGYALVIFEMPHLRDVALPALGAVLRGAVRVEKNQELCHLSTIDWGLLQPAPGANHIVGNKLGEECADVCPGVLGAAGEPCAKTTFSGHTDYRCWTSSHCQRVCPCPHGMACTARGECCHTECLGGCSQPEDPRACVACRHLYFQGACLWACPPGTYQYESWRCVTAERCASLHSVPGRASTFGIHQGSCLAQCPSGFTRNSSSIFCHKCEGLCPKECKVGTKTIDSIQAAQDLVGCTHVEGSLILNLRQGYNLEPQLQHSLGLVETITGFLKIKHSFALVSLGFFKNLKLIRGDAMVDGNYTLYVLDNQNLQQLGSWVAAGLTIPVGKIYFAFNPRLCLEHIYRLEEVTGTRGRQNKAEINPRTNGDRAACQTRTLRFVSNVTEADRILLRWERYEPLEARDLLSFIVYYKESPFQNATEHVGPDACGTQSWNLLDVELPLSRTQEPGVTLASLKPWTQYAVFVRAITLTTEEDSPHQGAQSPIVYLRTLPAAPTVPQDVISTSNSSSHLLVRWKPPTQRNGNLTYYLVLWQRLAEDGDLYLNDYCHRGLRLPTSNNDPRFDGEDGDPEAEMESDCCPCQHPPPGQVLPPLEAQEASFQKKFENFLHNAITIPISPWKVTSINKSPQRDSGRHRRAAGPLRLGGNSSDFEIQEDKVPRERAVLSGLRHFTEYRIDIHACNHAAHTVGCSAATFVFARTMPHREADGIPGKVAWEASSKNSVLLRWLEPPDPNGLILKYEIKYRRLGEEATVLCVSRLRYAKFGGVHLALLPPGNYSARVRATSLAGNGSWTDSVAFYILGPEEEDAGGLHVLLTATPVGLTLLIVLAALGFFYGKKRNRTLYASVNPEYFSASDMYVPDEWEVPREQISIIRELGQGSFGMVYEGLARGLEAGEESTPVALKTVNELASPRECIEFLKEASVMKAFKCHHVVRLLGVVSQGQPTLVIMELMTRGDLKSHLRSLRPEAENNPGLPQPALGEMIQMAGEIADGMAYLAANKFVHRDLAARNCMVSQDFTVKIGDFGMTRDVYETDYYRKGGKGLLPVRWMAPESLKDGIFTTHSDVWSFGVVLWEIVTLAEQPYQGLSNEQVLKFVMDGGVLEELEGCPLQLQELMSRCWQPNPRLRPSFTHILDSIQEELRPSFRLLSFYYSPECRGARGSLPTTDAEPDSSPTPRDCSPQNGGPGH
UniProt Q15118, whole entry, looked up: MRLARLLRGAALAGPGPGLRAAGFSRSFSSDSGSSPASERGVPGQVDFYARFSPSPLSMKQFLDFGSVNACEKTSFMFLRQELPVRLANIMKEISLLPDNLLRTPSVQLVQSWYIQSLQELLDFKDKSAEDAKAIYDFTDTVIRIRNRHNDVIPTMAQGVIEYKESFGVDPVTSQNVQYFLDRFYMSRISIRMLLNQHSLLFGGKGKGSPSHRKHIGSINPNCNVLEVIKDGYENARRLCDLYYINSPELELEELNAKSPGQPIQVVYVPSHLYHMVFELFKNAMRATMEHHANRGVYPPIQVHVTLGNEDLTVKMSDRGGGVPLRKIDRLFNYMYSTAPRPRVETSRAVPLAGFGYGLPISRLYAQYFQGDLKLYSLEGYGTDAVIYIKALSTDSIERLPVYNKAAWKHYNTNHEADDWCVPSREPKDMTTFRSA
UniProt P36888, whole entry: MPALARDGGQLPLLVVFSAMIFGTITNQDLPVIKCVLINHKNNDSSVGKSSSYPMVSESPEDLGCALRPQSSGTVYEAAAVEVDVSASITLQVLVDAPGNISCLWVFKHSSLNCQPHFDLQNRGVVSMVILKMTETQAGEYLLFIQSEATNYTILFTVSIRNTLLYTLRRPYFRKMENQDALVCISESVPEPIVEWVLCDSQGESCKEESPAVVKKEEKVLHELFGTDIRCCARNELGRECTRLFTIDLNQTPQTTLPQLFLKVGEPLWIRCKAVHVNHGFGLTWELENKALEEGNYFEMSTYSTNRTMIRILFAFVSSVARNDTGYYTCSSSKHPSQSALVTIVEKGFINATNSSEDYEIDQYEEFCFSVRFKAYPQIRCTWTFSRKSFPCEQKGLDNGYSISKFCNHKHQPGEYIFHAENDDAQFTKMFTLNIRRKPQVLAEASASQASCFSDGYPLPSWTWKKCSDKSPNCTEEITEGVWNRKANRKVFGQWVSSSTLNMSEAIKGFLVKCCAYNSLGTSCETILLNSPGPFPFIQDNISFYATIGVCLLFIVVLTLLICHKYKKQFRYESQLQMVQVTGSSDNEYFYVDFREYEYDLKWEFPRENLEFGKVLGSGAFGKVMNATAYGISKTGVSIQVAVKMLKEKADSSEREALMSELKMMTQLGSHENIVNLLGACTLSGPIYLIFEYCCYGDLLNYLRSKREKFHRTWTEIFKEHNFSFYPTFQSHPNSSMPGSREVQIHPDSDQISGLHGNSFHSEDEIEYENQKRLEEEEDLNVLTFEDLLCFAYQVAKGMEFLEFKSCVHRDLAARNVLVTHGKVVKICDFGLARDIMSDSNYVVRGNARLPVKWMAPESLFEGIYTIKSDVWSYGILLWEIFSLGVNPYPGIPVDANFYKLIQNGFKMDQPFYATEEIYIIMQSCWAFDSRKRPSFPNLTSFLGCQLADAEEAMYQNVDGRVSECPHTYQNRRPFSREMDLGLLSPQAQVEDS
UniProt P53671: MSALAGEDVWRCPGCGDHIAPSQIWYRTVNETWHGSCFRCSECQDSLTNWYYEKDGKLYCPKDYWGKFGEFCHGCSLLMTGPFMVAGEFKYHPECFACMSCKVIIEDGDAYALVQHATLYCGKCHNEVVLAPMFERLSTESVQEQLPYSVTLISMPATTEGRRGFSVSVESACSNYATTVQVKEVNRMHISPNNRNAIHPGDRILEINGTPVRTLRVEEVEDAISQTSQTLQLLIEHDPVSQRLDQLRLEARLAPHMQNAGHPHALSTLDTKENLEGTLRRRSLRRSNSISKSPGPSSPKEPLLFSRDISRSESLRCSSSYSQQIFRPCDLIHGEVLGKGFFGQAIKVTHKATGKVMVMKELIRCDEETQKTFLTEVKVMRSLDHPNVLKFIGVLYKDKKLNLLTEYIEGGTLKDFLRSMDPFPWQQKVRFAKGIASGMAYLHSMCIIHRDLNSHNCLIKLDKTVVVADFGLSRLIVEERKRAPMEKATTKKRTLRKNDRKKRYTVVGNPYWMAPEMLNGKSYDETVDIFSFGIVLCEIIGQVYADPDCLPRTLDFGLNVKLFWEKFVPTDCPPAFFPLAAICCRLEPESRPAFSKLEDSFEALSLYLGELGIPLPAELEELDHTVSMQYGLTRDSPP
UniProt Q96GD4, whole entry: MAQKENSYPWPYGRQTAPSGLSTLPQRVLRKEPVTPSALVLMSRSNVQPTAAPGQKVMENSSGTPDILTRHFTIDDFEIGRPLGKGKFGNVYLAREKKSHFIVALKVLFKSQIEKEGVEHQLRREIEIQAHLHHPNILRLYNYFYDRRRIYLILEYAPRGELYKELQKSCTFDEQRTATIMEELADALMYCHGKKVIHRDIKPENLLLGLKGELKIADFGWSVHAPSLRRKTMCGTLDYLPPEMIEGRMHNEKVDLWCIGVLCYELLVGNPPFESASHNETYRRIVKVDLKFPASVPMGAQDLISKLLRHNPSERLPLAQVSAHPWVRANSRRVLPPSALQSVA
UniProt P21802, whole entry, looked up: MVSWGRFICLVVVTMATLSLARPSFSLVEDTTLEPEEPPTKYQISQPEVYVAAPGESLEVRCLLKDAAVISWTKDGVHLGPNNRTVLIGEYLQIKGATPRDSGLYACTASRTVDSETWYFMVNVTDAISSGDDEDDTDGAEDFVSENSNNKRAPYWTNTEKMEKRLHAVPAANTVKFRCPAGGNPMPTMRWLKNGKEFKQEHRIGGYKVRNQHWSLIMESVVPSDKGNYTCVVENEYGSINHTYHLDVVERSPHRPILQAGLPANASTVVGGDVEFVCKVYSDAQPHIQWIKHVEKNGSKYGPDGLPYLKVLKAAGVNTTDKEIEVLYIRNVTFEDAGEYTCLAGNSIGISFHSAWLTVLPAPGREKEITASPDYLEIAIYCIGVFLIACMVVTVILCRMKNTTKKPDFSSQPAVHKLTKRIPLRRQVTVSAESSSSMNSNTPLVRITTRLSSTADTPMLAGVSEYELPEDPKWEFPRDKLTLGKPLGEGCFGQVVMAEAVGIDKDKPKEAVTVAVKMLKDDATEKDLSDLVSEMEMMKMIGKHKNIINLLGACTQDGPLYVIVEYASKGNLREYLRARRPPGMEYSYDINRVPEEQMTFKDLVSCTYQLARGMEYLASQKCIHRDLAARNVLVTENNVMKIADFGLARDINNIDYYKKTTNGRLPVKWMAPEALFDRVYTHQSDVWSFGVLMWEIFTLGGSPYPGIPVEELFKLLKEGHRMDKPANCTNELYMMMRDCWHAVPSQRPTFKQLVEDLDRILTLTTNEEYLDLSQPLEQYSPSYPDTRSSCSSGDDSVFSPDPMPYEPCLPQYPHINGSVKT
UniProt Q13555: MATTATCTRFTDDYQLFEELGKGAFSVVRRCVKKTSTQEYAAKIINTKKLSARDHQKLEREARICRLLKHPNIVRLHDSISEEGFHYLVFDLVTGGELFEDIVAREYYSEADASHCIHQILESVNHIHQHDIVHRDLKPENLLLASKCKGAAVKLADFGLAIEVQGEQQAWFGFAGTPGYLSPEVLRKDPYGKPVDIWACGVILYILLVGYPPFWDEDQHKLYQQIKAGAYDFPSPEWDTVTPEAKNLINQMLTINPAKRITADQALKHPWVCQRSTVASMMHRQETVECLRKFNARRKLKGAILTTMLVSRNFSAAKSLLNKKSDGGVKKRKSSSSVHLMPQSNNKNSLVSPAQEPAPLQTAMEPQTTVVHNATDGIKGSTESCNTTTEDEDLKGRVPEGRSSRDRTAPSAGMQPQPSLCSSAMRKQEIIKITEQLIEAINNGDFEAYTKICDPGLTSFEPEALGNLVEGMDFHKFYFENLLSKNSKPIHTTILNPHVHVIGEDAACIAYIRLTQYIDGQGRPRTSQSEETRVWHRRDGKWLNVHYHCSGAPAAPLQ
UniProt Q9BRS2: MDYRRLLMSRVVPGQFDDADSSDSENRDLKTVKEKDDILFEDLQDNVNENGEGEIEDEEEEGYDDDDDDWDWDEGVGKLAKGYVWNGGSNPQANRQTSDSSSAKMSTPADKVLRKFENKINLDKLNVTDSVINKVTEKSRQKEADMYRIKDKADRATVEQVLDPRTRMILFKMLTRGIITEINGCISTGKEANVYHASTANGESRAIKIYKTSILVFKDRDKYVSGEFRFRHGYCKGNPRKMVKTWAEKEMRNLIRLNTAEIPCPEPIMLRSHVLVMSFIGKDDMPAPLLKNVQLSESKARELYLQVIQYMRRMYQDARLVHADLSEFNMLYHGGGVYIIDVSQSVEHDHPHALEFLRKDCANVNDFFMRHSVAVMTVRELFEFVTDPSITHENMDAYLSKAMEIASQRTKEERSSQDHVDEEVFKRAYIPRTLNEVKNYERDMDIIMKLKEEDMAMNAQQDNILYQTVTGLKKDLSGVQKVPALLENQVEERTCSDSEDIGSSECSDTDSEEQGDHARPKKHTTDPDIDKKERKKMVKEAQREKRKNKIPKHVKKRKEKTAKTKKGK
UniProt Q96KB5: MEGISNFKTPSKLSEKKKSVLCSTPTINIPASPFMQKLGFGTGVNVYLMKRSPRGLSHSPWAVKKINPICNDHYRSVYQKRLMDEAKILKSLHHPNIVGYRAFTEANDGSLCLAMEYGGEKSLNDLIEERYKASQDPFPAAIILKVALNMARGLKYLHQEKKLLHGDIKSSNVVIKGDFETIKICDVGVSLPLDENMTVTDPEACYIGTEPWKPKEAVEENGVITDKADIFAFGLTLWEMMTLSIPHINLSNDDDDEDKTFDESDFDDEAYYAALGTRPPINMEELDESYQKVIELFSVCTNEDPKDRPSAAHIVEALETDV
UniProt Q9BUB5: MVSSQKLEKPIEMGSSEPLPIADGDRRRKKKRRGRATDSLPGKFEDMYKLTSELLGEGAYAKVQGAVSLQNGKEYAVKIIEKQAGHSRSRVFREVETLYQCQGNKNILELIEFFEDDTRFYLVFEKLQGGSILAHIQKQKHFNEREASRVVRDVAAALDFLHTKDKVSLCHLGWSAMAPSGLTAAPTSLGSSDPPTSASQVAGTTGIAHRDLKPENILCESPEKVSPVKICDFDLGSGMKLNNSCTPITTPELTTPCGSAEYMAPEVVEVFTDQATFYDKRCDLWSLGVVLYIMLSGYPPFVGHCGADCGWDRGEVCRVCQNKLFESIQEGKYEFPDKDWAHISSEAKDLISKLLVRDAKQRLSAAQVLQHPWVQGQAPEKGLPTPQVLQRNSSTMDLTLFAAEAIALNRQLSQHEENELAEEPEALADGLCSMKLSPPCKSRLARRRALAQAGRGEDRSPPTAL

Measured: number of time points

FYN (UniProt P06241)
1: GAK inhibitor 49
3: Cabozantinib (S-malate) | Cabozantinib
0: all other assays above

AURKC (UniProt Q9UQB9)
1: Cabozantinib (S-malate)
0: all other assays above

CSK (UniProt P41240)
0: all assays above

INSRR (UniProt P14616)
2: GAK inhibitor 49 | Cabozantinib
3: [3] | Cabozantinib (S-malate)
0: all other assays above

IRAK3 (UniProt Q9Y616)
2: Cabozantinib (S-malate)
1: Cabozantinib
0: all other assays above

PDK1 (UniProt Q15118)
1: [2]
0: all other assays above

FLT3 (UniProt P36888)
3: GAK inhibitor 49
2: Cabozantinib (S-malate)
1: Cabozantinib
0: all other assays above

Reprinted from above (two entries):
INSRR (UniProt P14616)
2: GAK inhibitor 49 | Cabozantinib
3: [3] | Cabozantinib (S-malate)
0: all other assays above

IRAK3 (UniProt Q9Y616)
2: Cabozantinib (S-malate)
1: Cabozantinib
0: all other assays above

More records

LIMK2 (UniProt P53671)
3: [3]
1: Cabozantinib (S-malate) | Cabozantinib
0: all other assays above

AURKB (UniProt Q96GD4)
1: Cabozantinib
0: all other assays above

EGFR_L718V (UniProt P00533)
1: Cabozantinib
0: all other assays above

EGFR (UniProt P00533)
2: Cabozantinib (S-malate)
0: all other assays above

FGFR2 (UniProt P21802)
1: [3] | Cabozantinib (S-malate)
3: GAK inhibitor 49 | Cabozantinib
0: all other assays above

CAMK2G (UniProt Q13555)
0: all assays above

RIOK1 (UniProt Q9BRS2)
1: GAK inhibitor 49
2: Cabozantinib (S-malate) | Cabozantinib
0: all other assays above

AKT1 (UniProt P31749)
0: all assays above

RET_M918T (clone: RET_mut) (UniProt P07949)
1: Cabozantinib (S-malate) | Cabozantinib
0: all other assays above

PBK (UniProt Q96KB5)
0: all assays above

PIK4CA (UniProt P42356)
4: Cabozantinib (S-malate)
2: Cabozantinib
0: all other assays above

MKNK1 (UniProt Q9BUB5)
1: GAK inhibitor 49 | Cabozantinib (S-malate)
2: Cabozantinib
0: all other assays above

TEC (UniProt P42680)
2: Cabozantinib (S-malate)
0: all other assays above

DDR1 (UniProt Q08345)
2: Cabozantinib (S-malate)
3: [3] | GAK inhibitor 49
1: Cabozantinib
0: all other assays above

EGFR_G719S (UniProt P00533)
3: GAK inhibitor 49
2: Cabozantinib
0: all other assays above

BRAF (UniProt P15056)
3: Cabozantinib (S-malate)
0: all other assays above

BTK (UniProt Q06187)
1: Cabozantinib (S-malate)
0: all other assays above

MAPKAPK2 (UniProt P49137)
0: all assays above

EPHA2 (UniProt P29317)
0: all assays above

ZAK (UniProt Q9NYL2)
1: Cabozantinib
0: all other assays above

NTRK3 (UniProt Q16288)
0: all assays above
